From article PMC5317164
These are yes or no findings as the source states them, for the method shown. In cells and extracts the contact can be indirect. Some results given as binding are weak or reduced against the parent protein; the word gives no strength.

T1: Vinculin (VCL), endogenous in adult mouse heart (mouse (endogenous in heart)) (UniProt Q64727)
T1 sequence: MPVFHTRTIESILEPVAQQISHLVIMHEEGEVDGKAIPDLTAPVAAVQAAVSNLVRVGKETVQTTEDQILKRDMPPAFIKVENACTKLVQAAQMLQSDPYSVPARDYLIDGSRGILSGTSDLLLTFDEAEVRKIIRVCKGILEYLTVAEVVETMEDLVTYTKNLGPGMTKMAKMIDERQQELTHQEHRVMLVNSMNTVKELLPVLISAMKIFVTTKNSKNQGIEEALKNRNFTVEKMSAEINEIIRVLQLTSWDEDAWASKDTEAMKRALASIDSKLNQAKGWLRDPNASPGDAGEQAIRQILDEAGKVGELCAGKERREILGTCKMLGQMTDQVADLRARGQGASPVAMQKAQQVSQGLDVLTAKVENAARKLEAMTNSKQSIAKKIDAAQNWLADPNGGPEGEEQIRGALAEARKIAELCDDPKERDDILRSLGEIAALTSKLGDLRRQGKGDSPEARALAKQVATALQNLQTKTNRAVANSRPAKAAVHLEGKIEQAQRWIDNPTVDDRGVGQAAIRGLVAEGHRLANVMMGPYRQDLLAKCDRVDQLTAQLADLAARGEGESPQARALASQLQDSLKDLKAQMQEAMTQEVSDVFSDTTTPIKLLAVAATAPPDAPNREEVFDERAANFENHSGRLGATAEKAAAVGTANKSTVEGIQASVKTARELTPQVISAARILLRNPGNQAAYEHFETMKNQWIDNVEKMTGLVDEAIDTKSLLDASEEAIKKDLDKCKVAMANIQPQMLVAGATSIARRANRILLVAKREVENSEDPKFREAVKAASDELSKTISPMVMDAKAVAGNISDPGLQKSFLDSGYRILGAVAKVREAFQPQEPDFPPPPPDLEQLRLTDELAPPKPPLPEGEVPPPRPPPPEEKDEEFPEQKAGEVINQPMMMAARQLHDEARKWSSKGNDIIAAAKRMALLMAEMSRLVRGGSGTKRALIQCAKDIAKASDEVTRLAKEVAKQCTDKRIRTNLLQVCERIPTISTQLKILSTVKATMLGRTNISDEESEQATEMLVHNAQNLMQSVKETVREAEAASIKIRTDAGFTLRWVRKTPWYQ


How the values were obtained:
[1] = molecular target: T1, Vinculin (VCL), endogenous in adult mouse heart (mouse (endogenous in heart)); assay: co-IP; adult mouse heart homogenate in RIPA buffer, 1.0 mg a reaction; 25 ug VCL or SCN5A antibody immobilised on agarose resin (Pierce direct IP kit), 4 °C overnight; Western blot with anti-SCN5A or anti-VCL
[2] = molecular target: SCN5A (cardiac sodium channel), endogenous in adult mouse heart (mouse (endogenous in heart)) (UniProt Q9JJV9); assay: as above

Molecule | binding [1] | binding [2]
SCN5A (cardiac sodium channel), endogenous in adult mouse heart (from UniProt Q9JJV9 1-2019) | binds | –
Vinculin (VCL), endogenous in adult mouse heart (protein, UniProt Q64727 1-1066) MPVFHTRTIESILEPVAQQISHLVIMHEEGEVDGKAIPDLTAPVAAVQAAVSNLVRVGKETVQTTEDQILKRDMPPAFIKVENACTKLVQAAQMLQSDPYSVPARDYLIDGSRGILSGTSDLLLTFDEAEVRKIIRVCKGILEYLTVAEVVETMEDLVTYTKNLGPGMTKMAKMIDERQQELTHQEHRVMLVNSMNTVKELLPVLISAMKIFVTTKNSKNQGIEEALKNRNFTVEKMSAEINEIIRVLQLTSWDEDAWASKDTEAMKRALASIDSKLNQAKGWLRDPNASPGDAGEQAIRQILDEAGKVGELCAGKERREILGTCKMLGQMTDQVADLRARGQGASPVAMQKAQQVSQGLDVLTAKVENAARKLEAMTNSKQSIAKKIDAAQNWLADPNGGPEGEEQIRGALAEARKIAELCDDPKERDDILRSLGEIAALTSKLGDLRRQGKGDSPEARALAKQVATALQNLQTKTNRAVANSRPAKAAVHLEGKIEQAQRWIDNPTVDDRGVGQAAIRGLVAEGHRLANVMMGPYRQDLLAKCDRVDQLTAQLADLAARGEGESPQARALASQLQDSLKDLKAQMQEAMTQEVSDVFSDTTTPIKLLAVAATAPPDAPNREEVFDERAANFENHSGRLGATAEKAAAVGTANKSTVEGIQASVKTARELTPQVISAARILLRNPGNQAAYEHFETMKNQWIDNVEKMTGLVDEAIDTKSLLDASEEAIKKDLDKCKVAMANIQPQMLVAGATSIARRANRILLVAKREVENSEDPKFREAVKAASDELSKTISPMVMDAKAVAGNISDPGLQKSFLDSGYRILGAVAKVREAFQPQEPDFPPPPPDLEQLRLTDELAPPKPPLPEGEVPPPRPPPPEEKDEEFPEQKAGEVINQPMMMAARQLHDEARKWSSKGNDIIAAAKRMALLMAEMSRLVRGGSGTKRALIQCAKDIAKASDEVTRLAKEVAKQCTDKRIRTNLLQVCERIPTISTQLKILSTVKATMLGRTNISDEESEQATEMLVHNAQNLMQSVKETVREAEAASIKIRTDAGFTLRWVRKTPWYQ | – | binds
